At least one compound was matched to its structure with a doubt left.
Experiment: Solubility/dissolution of felodipine compositions in 40% PEG solution (paddle stirrer, absorbance 362 nm)
Type: physicochemical
Conditions: 500 ml 40% PEG solution, 37°C, paddle 50 rpm

CCOC(=O)C1=C(C)NC(C)=C(C(=O)OC)C1c1cccc(Cl)c1Cl (stereo not shown) [Pure felodipine, felodipine]
Percent released (%) (Time 0.5 h): 9.2% | Percent released (%) (Time 1 h): 21.1% | Percent released (%) (Time 2 h): 49.5% | Percent released (%) (Time 3 h): 66.8%
